For one substance, binding results are on record in publication PMC9420732.

Amino acid sequences for entries named in this document (tags omitted). Residues count along the entry.
UniProt P05622, residues 32-1098: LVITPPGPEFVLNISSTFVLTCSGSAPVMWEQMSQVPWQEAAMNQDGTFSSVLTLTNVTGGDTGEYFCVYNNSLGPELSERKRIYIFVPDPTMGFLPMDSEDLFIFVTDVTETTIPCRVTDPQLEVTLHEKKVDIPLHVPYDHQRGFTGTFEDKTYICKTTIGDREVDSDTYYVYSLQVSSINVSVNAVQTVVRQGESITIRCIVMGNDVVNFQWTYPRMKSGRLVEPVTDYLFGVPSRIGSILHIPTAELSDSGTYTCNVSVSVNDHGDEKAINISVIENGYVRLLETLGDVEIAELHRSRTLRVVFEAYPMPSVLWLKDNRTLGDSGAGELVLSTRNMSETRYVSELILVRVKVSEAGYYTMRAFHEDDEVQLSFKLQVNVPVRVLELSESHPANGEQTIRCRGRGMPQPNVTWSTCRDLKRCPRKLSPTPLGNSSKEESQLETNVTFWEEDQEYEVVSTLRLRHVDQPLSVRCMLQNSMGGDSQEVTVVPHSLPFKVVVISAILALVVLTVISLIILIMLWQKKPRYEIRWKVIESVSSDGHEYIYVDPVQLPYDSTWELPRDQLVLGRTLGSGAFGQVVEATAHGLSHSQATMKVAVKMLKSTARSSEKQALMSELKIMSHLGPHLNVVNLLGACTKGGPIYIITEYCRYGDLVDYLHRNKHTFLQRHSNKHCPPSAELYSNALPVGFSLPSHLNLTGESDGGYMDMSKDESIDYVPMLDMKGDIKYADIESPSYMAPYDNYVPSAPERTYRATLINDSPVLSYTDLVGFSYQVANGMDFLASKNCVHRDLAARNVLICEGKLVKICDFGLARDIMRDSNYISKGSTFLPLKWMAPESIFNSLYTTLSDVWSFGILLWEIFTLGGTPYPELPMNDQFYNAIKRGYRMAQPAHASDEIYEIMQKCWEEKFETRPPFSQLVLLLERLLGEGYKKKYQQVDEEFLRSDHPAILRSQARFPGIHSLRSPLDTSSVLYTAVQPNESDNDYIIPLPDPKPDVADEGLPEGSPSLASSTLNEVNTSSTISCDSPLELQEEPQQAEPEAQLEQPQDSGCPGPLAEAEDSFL
UniProt P26039: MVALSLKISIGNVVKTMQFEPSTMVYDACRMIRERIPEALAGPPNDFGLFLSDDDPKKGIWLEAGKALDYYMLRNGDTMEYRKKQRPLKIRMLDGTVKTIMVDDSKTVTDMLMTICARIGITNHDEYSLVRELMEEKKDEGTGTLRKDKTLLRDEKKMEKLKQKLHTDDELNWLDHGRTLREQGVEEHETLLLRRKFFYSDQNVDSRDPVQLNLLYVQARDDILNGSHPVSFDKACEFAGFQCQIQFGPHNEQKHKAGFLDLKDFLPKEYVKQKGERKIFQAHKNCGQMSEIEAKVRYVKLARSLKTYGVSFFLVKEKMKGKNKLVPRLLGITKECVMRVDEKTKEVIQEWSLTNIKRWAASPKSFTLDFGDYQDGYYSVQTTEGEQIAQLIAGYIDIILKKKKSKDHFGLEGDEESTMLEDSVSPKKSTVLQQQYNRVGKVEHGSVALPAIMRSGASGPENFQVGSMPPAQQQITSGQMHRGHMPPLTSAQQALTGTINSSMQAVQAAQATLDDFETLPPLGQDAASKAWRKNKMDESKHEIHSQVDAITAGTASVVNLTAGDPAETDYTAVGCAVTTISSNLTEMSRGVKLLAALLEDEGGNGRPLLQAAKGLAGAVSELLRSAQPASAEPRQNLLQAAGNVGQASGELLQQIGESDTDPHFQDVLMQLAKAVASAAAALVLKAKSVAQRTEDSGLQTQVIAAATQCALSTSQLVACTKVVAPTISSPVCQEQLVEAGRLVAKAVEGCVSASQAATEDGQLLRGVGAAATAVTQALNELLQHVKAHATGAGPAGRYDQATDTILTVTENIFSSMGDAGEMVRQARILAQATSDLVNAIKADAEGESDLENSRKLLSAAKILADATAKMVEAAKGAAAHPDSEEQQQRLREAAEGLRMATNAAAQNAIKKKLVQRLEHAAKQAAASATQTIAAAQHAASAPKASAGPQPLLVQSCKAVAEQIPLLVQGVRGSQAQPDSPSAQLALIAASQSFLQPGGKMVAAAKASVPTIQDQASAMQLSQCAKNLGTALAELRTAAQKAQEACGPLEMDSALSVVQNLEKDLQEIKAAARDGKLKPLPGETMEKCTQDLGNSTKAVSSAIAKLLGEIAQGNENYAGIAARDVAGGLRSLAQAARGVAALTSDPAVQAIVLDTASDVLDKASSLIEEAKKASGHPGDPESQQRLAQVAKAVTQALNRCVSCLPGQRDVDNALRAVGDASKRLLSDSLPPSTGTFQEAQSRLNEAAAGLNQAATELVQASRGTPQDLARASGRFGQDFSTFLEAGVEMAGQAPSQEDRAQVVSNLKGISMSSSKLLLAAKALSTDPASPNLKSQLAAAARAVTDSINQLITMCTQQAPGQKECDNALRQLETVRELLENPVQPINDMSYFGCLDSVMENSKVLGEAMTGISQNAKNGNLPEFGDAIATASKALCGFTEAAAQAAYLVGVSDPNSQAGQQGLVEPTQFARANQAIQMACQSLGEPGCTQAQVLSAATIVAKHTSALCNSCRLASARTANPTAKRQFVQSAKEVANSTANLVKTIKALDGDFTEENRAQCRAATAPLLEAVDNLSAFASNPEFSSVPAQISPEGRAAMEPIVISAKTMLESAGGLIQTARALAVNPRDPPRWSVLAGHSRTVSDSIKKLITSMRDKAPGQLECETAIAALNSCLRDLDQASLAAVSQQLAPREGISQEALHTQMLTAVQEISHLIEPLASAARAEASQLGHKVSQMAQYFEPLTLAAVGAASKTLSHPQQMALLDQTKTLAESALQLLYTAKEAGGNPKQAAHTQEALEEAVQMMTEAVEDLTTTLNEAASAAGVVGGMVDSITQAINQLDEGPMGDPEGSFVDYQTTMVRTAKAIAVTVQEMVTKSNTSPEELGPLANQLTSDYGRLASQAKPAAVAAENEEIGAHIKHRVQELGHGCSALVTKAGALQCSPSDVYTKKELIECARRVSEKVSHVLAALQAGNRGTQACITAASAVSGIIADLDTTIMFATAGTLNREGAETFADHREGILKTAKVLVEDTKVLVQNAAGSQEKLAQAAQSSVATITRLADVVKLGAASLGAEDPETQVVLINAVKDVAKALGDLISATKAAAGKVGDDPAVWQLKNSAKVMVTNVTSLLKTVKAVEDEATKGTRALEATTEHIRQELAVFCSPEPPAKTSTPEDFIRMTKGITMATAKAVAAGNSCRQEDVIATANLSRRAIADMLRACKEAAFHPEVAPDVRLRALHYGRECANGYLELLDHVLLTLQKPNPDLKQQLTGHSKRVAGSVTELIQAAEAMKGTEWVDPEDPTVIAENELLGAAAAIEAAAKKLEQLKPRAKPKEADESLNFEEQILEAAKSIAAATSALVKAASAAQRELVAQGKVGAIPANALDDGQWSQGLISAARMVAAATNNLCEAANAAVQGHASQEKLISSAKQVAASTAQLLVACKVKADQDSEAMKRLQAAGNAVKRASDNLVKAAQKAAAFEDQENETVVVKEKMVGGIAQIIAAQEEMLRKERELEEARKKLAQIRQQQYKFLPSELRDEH

The target of this assay is platelet-derived growth factor receptor beta (PDGFR-β) (UniProt P05622). The assay can be described thus: affinity purification with mass spectrometry; total lysates of BMECs treated with PBS or PDGF-BB (300 ng/mL) for 24 h; immunoprecipitation with an antibody against PDGFR-β, then LC-MS/MS.

These are yes or no findings as the source states them, for the method shown. In cells and extracts the contact can be indirect. These calls come from enrichment with a bait or labelling near it, and not all partners need be listed.

Turning to talin1 (from UniProt P26039 1-2541), the binding result is reported as “binds”.
